PMC7556861
These are yes or no findings as the source states them, for the method shown. Binding seen in cells or lysates may run through a third protein. Here binding means that the protein was enriched with, or labelled near, the bait; the list need not be complete. Where a sequence is shown, tags or fusion partners need not be part of it.

Target: T1, FLAG-HA tandem tagged Miga (from pUASattB Miga-FLAG-HA) (Drosophila melanogaster) (UniProt Q9W3F7)
T1 sequence: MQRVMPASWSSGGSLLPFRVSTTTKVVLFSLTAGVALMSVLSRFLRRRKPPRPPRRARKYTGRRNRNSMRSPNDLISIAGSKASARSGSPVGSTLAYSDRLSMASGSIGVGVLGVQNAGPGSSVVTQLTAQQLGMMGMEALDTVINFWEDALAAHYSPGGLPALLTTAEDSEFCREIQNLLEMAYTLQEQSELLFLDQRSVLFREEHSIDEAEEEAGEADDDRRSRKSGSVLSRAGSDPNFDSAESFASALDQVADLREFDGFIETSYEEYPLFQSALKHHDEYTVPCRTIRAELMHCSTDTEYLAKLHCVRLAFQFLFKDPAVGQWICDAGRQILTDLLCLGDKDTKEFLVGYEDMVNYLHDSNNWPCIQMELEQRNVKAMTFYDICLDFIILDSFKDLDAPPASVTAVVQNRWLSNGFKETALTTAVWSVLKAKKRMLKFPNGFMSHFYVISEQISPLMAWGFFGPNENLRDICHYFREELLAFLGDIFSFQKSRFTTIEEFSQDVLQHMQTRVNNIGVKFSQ
Test: affinity purification with mass spectrometry; tandem IP of FLAG-HA tagged Miga overexpressed in S2 cells for 48 hr: FLAG beads, eluted with FLAG peptide, then HA beads; SDS-PAGE, LC-MS/MS

- binding: binds
B1: Vap33 (found by mass spectrometry with tagged Miga from S2 cells) (protein, UniProt Q9W4N8 1-269)
chain: MSKSLFDLPLTIEPEHELRFVGPFTRPVVTIMTLRNNSALPLVFKIKTTAPKRYCVRPNIGKIIPFRSTQVEICLQPFVYDQQEKNKHKFMVQSVLAPMDADLSDLNKLWKDLEPEQLMDAKLKCVFEMPTAEANAENTSGGGAVGGGTGAAGGGSAGANTSSASAEALESKPKLSSEDKFKPSNLLETSESLDLLSGEIKALRECNIELRRENLHLKDQITRFRSSPAVKQVNEPYAPVLAEKQIPVFYIAVAIAAAIVSLLLGKFFL
